Reference: PubChem BioAssay AID624297 (National Center for Advancing Translational Sciences (NCATS), 2012)
Several values for one entry are separate records, joined by “and”; a condition that tells them apart may be missing. Equal entries are not always repeated. Among all 340,000 compounds or so, about 6,200 (1.8%) were called active. This list was built around the results that the source calls inconclusive (neither active nor inactive); the mix of calls is not that of the screen. Calls come from the whole dose curve; as a rule, active = well fitted activation curve with a large enough effect; inconclusive = small, poorly fitted or top-dose-only effect; inactive = no such curve, though single readings can be large or run the other way. Potencies of inconclusive entries are doubtful fits and often do not repeat. Some compounds were tested as several samples or in several runs, with calls that do not always agree.

Test: A quantitative high throughput screen for small molecules that induce DNA re-replication in SW480 colon adenocarcinoma cells. For re-replication activation: % of control where 0% means no effect. Note: nearly all actives have a fitted effect of over 55% in size.
Conditions: Hoechst DNA content imaging, 48 h; re-replication activation: at 46.1 µM (top of the series) unless noted
Summary of the method: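 Image-based read-out: total Hoechst fluorescence of nuclei (405 nm excitation, 500-530 nm emission), with hits raising the fraction of high-intensity nuclei. SW480 colon cells incubated 48 hr with compounds at 37 C.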
Potency is the fitted concentration of half-maximal effect.

Row | SMILES | Potency | re-replication activation
1 | CCc1ccc(C(=O)CN2C(=O)C(C)N(c3ccc(C)cc3)C2=O)cc1 (stereo unspecified) | inactive | –
2 | CCN1CCN(CCCNC(=O)c2cc3c(s2)-c2ccccc2OC3)CC1 | inconclusive: 29.1 µM [activator, single point] | –
3 | COC(=O)c1c(-c2ccc(Br)cc2)noc1N | inconclusive: 29.1 µM [activator, single point] | –
4 | O=C1CC(c2ccccc2)Cc2nc(N3CCc4ccccc4C3)ncc21 (stereo unspecified) | inactive | –
5 | Cc1c(Cl)ccc2c(C(O)CBr)cc(-c3ccccc3)nc12 (stereo unspecified) | inconclusive: 29.1 µM [activator, single point] | –
6 | COc1cc(OC)cc(-n2nnnc2SCC(=O)N2CCCc3ccccc32)c1 | inactive | –
7 | CCOC(=O)c1c(C)[nH]c(C(=O)N/N=C/c2cccc(OC)c2)c1C | inconclusive: 29.1 µM [activator, single point] | –
8 | O=C(c1ccccc1)C(CCC(CN1CCOCC1)C(=O)c1ccccc1)CN1CCOCC1 (stereo unspecified) | inconclusive: 10.3 µM [activator, single point] | –
9 | O=C(NNC(=S)NC1CCCCC1)c1ccccc1O | inconclusive: 35.5 µM [activator, single point] | –
10 | COc1ccc(C2/C=C\CC(OCc3ccccc3)CC(=O)N2Cc2cccc(F)c2)cc1 (stereo unspecified) | inconclusive: 5.17 µM [activator, partial curve, poor fit] | –
11 | CSCCC(/C(O)=C(\C#N)c1nc2ccccc2[nH]1)N1C(=O)c2ccccc2C1=O (stereo unspecified) | inactive | –
12 | O=C(Nc1cccc(F)c1)Nc1ccc(Cl)cn1 | inconclusive: 3.66 µM [activator, full curve, poor fit] | –
13 | CC(OC(=O)c1ccccc1)C(=O)NCCC1=CCCCC1 (stereo unspecified) | inconclusive: 0.206 µM [activator, partial curve, poor fit] | –
14 | O=S(=O)(NCc1ccccc1)c1ccc(S(=O)(=O)NCC2CCCO2)cc1 (stereo unspecified) | inconclusive: 18.4 µM [activator, single point] | –
15 | O=C(CCC(=O)c1ccc(F)cc1)NCC1(N2CCCCC2)CCCCC1 | inconclusive: 2.91 µM [activator, full curve, poor fit] | –
16 | COc1cc(/C=C/C(=O)CC(=O)/C=C/c2ccc(O)c(OC)c2)ccc1O | active: 18.4 µM and active: 11.6 µM | –
17 | Cc1ccc(C(=O)OCN2C(=O)c3ccccc3C2=O)o1 | inconclusive: 29.1 µM [activator, single point] | –
18 | COc1ccc(NS(=O)(=O)c2cccc(C(=O)NCc3ccccc3CN3CCCC3)c2)cc1 | inactive | –
19 | CCc1cc2c(=O)n(CCC(C)C)c(=S)[nH]c2s1 | inactive | –
20 | CN(C)CC(C)(C)CNS(=O)(=O)c1ccc(Cl)c(Cl)c1 | inconclusive: 0.0052 µM [activator, full curve, poor fit] | –
21 | CCN(CC)C(=O)c1sc2c(c1C)c(=O)n(-c1ccc(OC)cc1OC)c(=O)n2CC(=O)c1ccccc1 | inconclusive: 1.03 µM [activator, full curve, poor fit] | –
22 | CCOC(=O)c1ccc(NC(=O)CN2C(=O)NC3(CCCCCCC3)C2=O)cc1 | inconclusive: 6.51 µM [activator, partial curve, poor fit] | –

Row | SMILES | Potency | re-replication activation
23 | Cc1nn(C(C)(C)C)c(OC(=O)c2ccc3c(c2)OCO3)c1S(=O)(=O)c1ccccc1 | inconclusive: 29.1 µM [activator, single point] | –
24 | Cc1cccc(CS(=O)(=O)c2nnc([C@H](Cc3ccccc3)NC(=O)OC(C)(C)C)o2)c1 | inconclusive: 10.3 µM [activator, single point] | –
25 | O=C(CN1CCN(c2ccccc2O)CC1)Nc1ccc([N+](=O)[O-])cc1Br | inconclusive: 6.51 µM [activator, partial curve, poor fit] | –
26 | CSc1ccccc1NC(=O)CN(c1cc(C)cc(C)c1)S(C)(=O)=O | inactive | –
27 | CCNc1ccc(Br)cc(C(=O)/C=C/c2ccc(Cl)cc2)c1=O | inconclusive: 29.1 µM [activator, single point] | –
28 | CC(C)CCNC(=O)NC(=O)CSc1nnc2ccccn12 | inconclusive: 29.1 µM [activator, single point] | –
29 | O=C(CN(c1ccccc1)S(=O)(=O)c1ccccc1[N+](=O)[O-])Nc1cccnc1 | inconclusive: 0.517 µM [activator, partial curve, poor fit] | –
30 | CCn1c(SCC(=O)N/N=C/c2ccc(C)s2)nc2ccccc21 | inconclusive: 20.6 µM [activator, single point] | –
31 | CN1/C(=C\C(=O)Nc2cccc(Cl)c2)C(C)(C)c2ccccc21 | inconclusive: 29.1 µM [activator, single point] | –
32 | O=S(=O)(NCc1ccco1)c1cnc(Cl)c(Cl)c1 | inconclusive: 23.1 µM [activator, single point] | –
33 | CN(C(=O)c1cc([N+](=O)[O-])ccc1NCc1cccnc1)c1ccccc1 | inactive | –
34 | C=CCOC(=O)c1[nH]c2c(c1C)C(=O)CC(c1ccco1)C2 (stereo unspecified) | active: 0.184 µM | –
35 | CC(C)(C)c1ccc(C(=O)NCCCN2CCN(CCCNC(=O)c3ccc(C(C)(C)C)cc3)CC2)cc1 | inconclusive: 23.1 µM [activator, single point] | –
36 | O=C1NC(=S)S/C1=C/c1ccc(Oc2cnccn2)cc1 | inactive | –
37 | O=C(NCc1ccncc1)C1CCN(C(=O)c2cccc(Cl)c2)CC1 | inconclusive: 0.1 µM [activator, full curve, poor fit] | –
38 | CCOc1ccc(NC(=S)Nc2ccc(OCC)cc2)cc1 | inconclusive: 0.731 µM [activator, partial curve, poor fit] | –
39 | O=c1oc2ccccc2cc1-c1nnc(NCc2ccco2)s1 | active: 13 µM | –
40 | Cc1cccc(Nc2ncc3c(n2)CC(c2ccco2)CC3=O)c1 (stereo unspecified) | inactive | –
41 | N#C/C(=C\c1cccnc1)c1nc2ccccc2[nH]1 | inconclusive: 18.4 µM [activator, single point] | –
42 | Oc1ccc(-c2cc(-c3ccc(O)cc3)nc(-c3ccccc3)n2)cc1 | inconclusive: 29.1 µM [activator, single point] | –
43 | CC1c2cc3c(cc2CCN1C(=O)c1ccc(Cl)cc1)OCCCO3 (stereo unspecified) | inconclusive: 29.1 µM [activator, single point] | –
44 | O=C(CCN=C1NS(=O)(=O)c2ccccc21)OCC(=O)c1ccc(F)cc1 | inconclusive: 1.84 µM [activator, single point] | –

An excerpt of these results, tab-delimited.
Row	SMILES	Potency	re-replication activation
14	O=S(=O)(NCc1ccccc1)c1ccc(S(=O)(=O)NCC2CCCO2)cc1 (stereo unspecified)	inconclusive: 18.4 µM [activator, single point]	–
15	O=C(CCC(=O)c1ccc(F)cc1)NCC1(N2CCCCC2)CCCCC1	inconclusive: 2.91 µM [activator, full curve, poor fit]	–
16	COc1cc(/C=C/C(=O)CC(=O)/C=C/c2ccc(O)c(OC)c2)ccc1O	active: 18.4 µM and active: 11.6 µM	–
17	Cc1ccc(C(=O)OCN2C(=O)c3ccccc3C2=O)o1	inconclusive: 29.1 µM [activator, single point]	–
18	COc1ccc(NS(=O)(=O)c2cccc(C(=O)NCc3ccccc3CN3CCCC3)c2)cc1	inactive	–
19	CCc1cc2c(=O)n(CCC(C)C)c(=S)[nH]c2s1	inactive	–

Going on with the list:

Row | SMILES | Potency | re-replication activation
45 | O=C(COc1cccnc1[N+](=O)[O-])NCCc1ccc(Cl)cc1Cl | inconclusive: 0.517 µM [activator, partial curve, poor fit] | –
46 | COc1ccc(OC)c(/C=C/C(=O)c2ccc3c(c2)OCO3)c1 | inconclusive: 29.1 µM [activator, single point] | –
47 | O=C(COc1ccc(-c2ccccc2)cc1)N/N=C/c1cc(O)ccc1Br | inconclusive: 17.8 µM [activator, single point] | –
48 | COc1cccc(NC(=O)CCC(=O)Nc2ccc3nc(N4CCOCC4)cc(C)c3c2)c1 | inconclusive: 3.66 µM [activator, partial curve] | –
49 | C=CC[C@@H](CC(=O)NCCO)C(=O)N[C@@H](COC(=O)[C@@H](CC=C)Cc1ccc(F)cc1)Cc1ccccc1 | inactive | –
50 | COc1cc(C(=O)N2CCN=C2c2ccccc2)cc(OC)c1OC | inactive | –
51 | Cc1cc(=O)[nH]c2ccc(Cc3ccccc3)cc12 | inactive | –
52 | CC(=O)N1c2ccc(S(=O)(=O)N3CCCC(C(=O)NCc4ccccc4Cl)C3)cc2CC1C (stereo unspecified) | inactive | –
53 | Cc1ccc(NC(=O)C2CSC3(C)CCC(=O)N23)cc1S(=O)(=O)N1CCCCCC1 (stereo unspecified) | inconclusive: 0.058 µM [activator, full curve, poor fit] | –
54 | COc1cc(C(c2c(C)[nH][nH]c2=O)c2c(C)[nH][nH]c2=O)ccc1OCc1ccc([N+](=O)[O-])cc1 | inconclusive: 18.4 µM [activator, single point] | –
55 | CCSc1ncc(Cl)c(C(=O)Nc2ccccc2OC)n1 | inconclusive: 23.1 µM [activator, single point] | –
56 | Cc1cc(O)c(C(C)C)cc1N=Cc1ccc(N(C)C)cc1 | inconclusive: 18.4 µM [activator, single point] | –
57 | Cc1ccc(CSc2nnc(SCC(=O)N/N=C/c3c(C)nn(-c4ccccc4)c3C)s2)cc1 | inactive | –
58 | Cc1ccc(NC(=O)CSc2nc(=O)n(CCN(C)C)c3c2CCCC3)cc1Cl | inconclusive: 16.4 µM [activator, single point] | –
59 | CCOC(=O)c1c(NC(=O)CCS(=O)(=O)c2ccccc2)sc2c1CCN(C)C2 | inconclusive: 2.91 µM [activator, partial curve, poor fit] | –
60 | [2H]c1c([2H])c([2H])c(-c2nc(N3CCCCCC3)sc2C(=O)c2ccccc2)c([2H])c1[2H] | inconclusive: 29.1 µM [activator, partial curve, poor fit] | –
61 | CCN(CC(=O)Nc1cccc(S(N)(=O)=O)c1)Cc1nc2ccccc2c(=O)[nH]1 | inconclusive: 29.1 µM [activator, single point] | –
62 | CC1(C)CC(NS(=O)(=O)c2ccc(F)cc2)CC(C)(C)N1 | – | inactive: 5.83% [at 1.84 µM]
63 | O=c1cccccc1NCc1ccccc1 | inactive | –
64 | C#CCn1c(=NC(=O)c2sc3ccccc3c2Cl)sc2cc(S(N)(=O)=O)ccc21 | inactive | –
65 | Cc1ccc(C2Nc3ccccc3-c3nc4ccccc4n32)o1 (stereo unspecified) | inconclusive: 32.6 µM [activator, partial curve, poor fit] | –
66 | O=C(c1ccccc1OCc1ccccc1Br)N1CCN(c2ncccn2)CC1 | inconclusive: 18.4 µM [activator, single point] | –
